# The other results are listed elsewhere or left out. Part of the spread comes from offsets between plates or batches.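 Hits were defined as a z-score below −3.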
# Target: T1, YTHDF1 YTH domain (aa 365-554) (UniProt Q9BYJ9)
# T1 sequence (whole entry): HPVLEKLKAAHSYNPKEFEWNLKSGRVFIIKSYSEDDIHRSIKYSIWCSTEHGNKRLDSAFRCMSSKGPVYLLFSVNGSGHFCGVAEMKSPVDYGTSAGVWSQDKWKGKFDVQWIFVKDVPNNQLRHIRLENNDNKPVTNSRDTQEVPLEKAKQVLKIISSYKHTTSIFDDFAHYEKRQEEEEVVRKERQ
# Assay: tryptophan fluorescence intensity z-score (mean); higher = higher fluorescence, less quenching (negative = binding / quenching)
# Settings: 10 µM
row,Compound,tryptophan fluorescence intensity z-score
1,CO[C@H]1[C@H](O)[C@H](O[C@H]2CC[C@@]3(C=O)[C@H](CC[C@@H]4[C@@H]3CC[C@]3(C)[C@@H](C5=CC(=O)OC5)CC[C@]43O)C2)O[C@@H](C)[C@@H]1O (plate: M 21-22),inactive: 0.104
2,CC(=O)O[C@@H]1[C@H]2CC[C@H]3[C@@](C)(O)[C@@H]4C[C@H](O)C(C)(C)[C@@]4(O)[C@H](O)C[C@@]13C[C@@]2(C)O (plate: M 15-16),inactive: 0.57
3,CC[C@@H](C(=O)[C@@H](C)[C@@H](O)[C@H](C)[C@@H]1O[C@@H]([C@@H](CC)C(=O)O)CC[C@@H]1C)[C@H]1O[C@]2(C=C[C@@H](O)[C@]3(CC[C@@](C)([C@H]4CC[C@](O)(CC)[C@H](C)O4)O3)O2)[C@H](C)C[C@@H]1C (plate: M 19-20),inactive: 0.794
4,CN[C@@H](C)[C@@H](O)c1ccccc1 (plate: M 5-6),inactive: 0.0171
5,CN1[C@@H]2C[C@@H](OC(=O)[C@H](CO)c3ccccc3)C[C@H]1[C@@H]1O[C@@H]12 (plate: M 5-6),inactive: -0.0455
6,C[C@@H]1O[C@@H](O[C@H]2CC[C@]3(C=O)[C@H]4CC[C@]5(C)[C@@H](C6=CC(=O)OC6)CC[C@]5(O)[C@@H]4CC[C@]3(O)C2)[C@H](O)[C@H](O)[C@H]1O (plate: M 19-20),inactive: 0.627
7,CC1(C)C2CC(=O)[C@]3(C)C(CC[C@@]4(C)[C@H](c5ccoc5)OC(=O)C5OC543)[C@@]2(C)[C@@H](O)C[C@H]1O (stereo partly drawn) (plate: M 13-14),inactive: -0.0247
8,C[C@H]1O[C@H](OC2[C@@H](O)[C@@H](O)C(O)[C@H](O)[C@H]2O)[C@@H](N)C[C@@H]1N=C(N)C(=O)O (stereo partly drawn) (plate: M 19-20),inactive: 0.146
9,COC1=C[C@@H]2[C@@H]3Cc4ccc(OC)c(O)c4[C@]2(CCN3C)CC1=O (plate: M 19-20),inactive: 0.62
10,CCOC(=O)C1C(C=C(C)C)C1(C)C (stereo not drawn) (plate: M 17-18),inactive: 0.501
11,O=C1C=CC(=O)c2ccccc21 (plate: M 23-24),inactive: -2.03
12,CCC(C)C(=O)O[C@@H]1C[C@@]2(C)[C@H](c3ccoc3)OC(=O)CC23OC2(C)O[C@]14[C@]1(C)[C@@H](CC(=O)OC)C5(C)CC1(O)[C@](O)(C5OC(=O)C1(C)OC1C)[C@@H](OC(C)=O)[C@]34O2 (stereo partly drawn) (plate: M 13-14),inactive: 0.882
13,CN1C[C@H](C(=O)N[C@]2(C)O[C@@]3(O)[C@@H]4CCCN4C(=O)[C@H](Cc4ccccc4)N3C2=O)C=C2c3cccc4[nH]cc(c34)C[C@H]21 (plate: M 11-12),inactive: -0.785
14,CNc1ccccc1C(=O)O (plate: M 21-22),inactive: 0.118
15,[O-][n+]1ccccc1[S-].[O-][n+]1ccccc1[S-].[Zn+2] (plate: M 3-4),inactive: -0.372
16,CN[C@@H]1[C@@H](O)[C@@H](O[C@@H]2[C@@H](O)[C@H](O[C@H]3O[C@H](CN)CC[C@H]3N)[C@@H](N)C[C@H]2N)OC[C@]1(C)O.CN[C@@H]1[C@@H](O)[C@@H](O[C@@H]2[C@@H](O)[C@H](O[C@H]3O[C@H]([C@@H](C)N)CC[C@H]3N)[C@@H](N)C[C@H]2N)OC[C@]1(C)O.CN[C@@H]1[C@@H](O)[C@@H](O[C@@H]2[C@@H](O)[C@H](O[C@H]3O[C@H]([C@@H](C)NC)CC[C@H]3N)[C@@H](N)C[C@H]2N)OC[C@]1(C)O (plate: M 3-4),inactive: -0.156
17,CC(=O)O[C@H]1[C@H]2[C@@H](OC(=O)Cc3ccccc3)[C@@H](C)C[C@]2(OC(C)=O)C(=O)/C(C)=C/[C@@H]2[C@H](CC[C@@]13CO3)C2(C)C (plate: M 21-22),inactive: 0.182
18,NC(=O)c1cc([N+](=O)[O-])cc([N+](=O)[O-])c1 (plate: M 3-4),inactive: 0.243
19,COc1ccc2c(c1O)-c1c(OC)c(OC)cc3c1[C@H](C2)N(C)CC3 (plate: M 17-18),inactive: 0.719
20,O=C1CC[C@@]2(O)[C@H]3Cc4ccc(O)c5c4[C@@]2(CCN3CC2CC2)[C@H]1O5 (plate: M 9-10),inactive: 0.342

# Look-ups from the entries so far.
# Under tryptophan fluorescence intensity z-score, CC(=O)O[C@H]1[C@H]2[C@@H](OC(=O)Cc3ccccc3)[C@@H](C)C[C@]2(OC(C)=O)C(=O)/C(C)=C/[C@@H]2[C@H](CC[C@@]13CO3)C2(C)C (plate: M 21-22) has inactive: 0.182
# Under tryptophan fluorescence intensity z-score, C[C@@H]1O[C@@H](O[C@H]2CC[C@]3(C=O)[C@H]4CC[C@]5(C)[C@@H](C6=CC(=O)OC6)CC[C@]5(O)[C@@H]4CC[C@]3(O)C2)[C@H](O)[C@H](O)[C@H]1O (plate: M 19-20) has inactive: 0.627
# Under tryptophan fluorescence intensity z-score, CCC(C)C(=O)O[C@@H]1C[C@@]2(C)[C@H](c3ccoc3)OC(=O)CC23OC2(C)O[C@]14[C@]1(C)[C@@H](CC(=O)OC)C5(C)CC1(O)[C@](O)(C5OC(=O)C1(C)OC1C)[C@@H](OC(C)=O)[C@]34O2 (stereo partly drawn) (plate: M 13-14) has inactive: 0.882

# The listing continues:

row,Compound,tryptophan fluorescence intensity z-score
1,CC(=O)[C@H]1CC[C@H]2[C@@H]3CC[C@H]4C[C@H](O)CC[C@]4(C)[C@H]3CC[C@]12C (plate: M 13-14),inactive: 0.358
2,C=CCSSCC=C (plate: M 19-20),inactive: 0.354
3,NCC(CC(=O)O)c1ccc(Cl)cc1 (stereo not drawn) (plate: M 1-2),inactive: 0.151
4,CC(NC(C)(C)C)C(=O)c1cccc(Cl)c1 (stereo not drawn) (plate: M 9-10),inactive: -0.165
5,O=C(O)CCCO (plate: M 1-2),inactive: 0.524
6,c1ccc2c(c1)[nH]c1cnccc12 (plate: M 17-18),inactive: 0.168
7,COC1=C[C@]23CCCN2CCc2cc4c(cc2[C@@H]3[C@@H]1O)OCO4 (plate: M 17-18),inactive: 1.49
8,NCCCNCCSP(=O)(O)O (plate: M 13-14),inactive: 0.443
9,CC(C)c1ccc2c(c1O)CC[C@H]1C3=C(CC[C@]21C)C(=O)OC3 (plate: M 19-20),inactive: 0.427
10,Nc1ccc([As](=O)(O)O)cc1 (plate: M 11-12),inactive: -0.0801
11,COP(=S)(OC)Oc1cc(Cl)c(Cl)cc1Cl (plate: M 11-12),inactive: -0.662
12,COc1cc2occc2c2oc(=O)ccc12 (plate: M 17-18),inactive: 0.515
13,COc1cccc2c1cc([N+](=O)[O-])c1c(C(=O)O)cc3c(c12)OCO3 (plate: M 19-20),inactive: 0.662
14,COc1ccc(/C=C/c2cc(O)cc(O)c2)cc1 (plate: M 19-20),inactive: -0.506
15,O=c1[nH]c2ccccc2n1C1CCN(CCCC(c2ccc(F)cc2)c2ccc(F)cc2)CC1 (plate: M 7-8),inactive: 0.652
16,CC(=O)[O][Hg][c]1ccccc1 (plate: M 5-6),inactive: -2.36
17,CC(=O)Nc1cc([As](=O)(O)O)ccc1O (plate: M 5-6),inactive: 0.2
18,C/C=C(\C)C(=O)O[C@H]1C[C@@H](OC(C)=O)[C@@]2(C(=O)OC)CO[C@H]3[C@@H](O)[C@@](C)([C@]45O[C@@]4(C)[C@H]4C[C@@H]5O[C@@H]5OC=C[C@@]54O)[C@H]4[C@]1(CO[C@]4(O)C(=O)OC)[C@@H]32 (plate: M 19-20),inactive: 0.239
19,Cc1cc2c(C(C)C)c(O)c(O)c(C=O)c2c(O)c1-c1c(C)cc2c(C(C)C)c(O)c(O)c(C=O)c2c1O (plate: M 19-20),inactive: -0.873
20,COc1cc2c(cc1OC)[C@@H]1C(=O)c3ccc(OC)c(CC=C(C)C)c3O[C@@H]1CO2 (plate: M 21-22),inactive: -0.508

row,Compound,tryptophan fluorescence intensity z-score
1,C#CCN(C)[C@H](C)Cc1ccccc1 (plate: M 11-12),inactive: -0.000539
2,C[C@@H]1O[C@@H](O[C@@H]2C=C3CC[C@@H]4[C@H](CC[C@]5(C)[C@@H](c6ccc(=O)oc6)CC[C@]45O)[C@@]3(C)CC2)[C@H](O)[C@H](O)[C@H]1O (plate: M 13-14),inactive: 0.276
3,CN(C)C(=O)Oc1ccc[n+](C)c1 (plate: M 7-8),inactive: -0.0161
4,COc1ccc(C(CN(C)C)C2(O)CCCCC2)cc1 (stereo not drawn) (plate: M 9-10),inactive: -0.172
5,CNC(=O)Oc1ccc2c(c1)[C@]1(C)CCN(C)[C@@H]1N2C (plate: M 5-6),inactive: -0.0648
6,CN(C)C(=O)Oc1cccc([N+](C)(C)C)c1 (plate: M 3-4),inactive: -0.364
7,CN1[C@H]2C[C@H](OC(=O)[C@H](CO)c3ccccc3)C[C@@H]1[C@@H](O)C2 (plate: M 17-18),inactive: 0.588
8,CC(C)(N)Cc1ccccc1 (plate: M 11-12),inactive: -0.609
9,CN(CC[C@H](N)CC(=O)N[C@H]1C=C[C@H](n2ccc(N)nc2=O)O[C@@H]1C(=O)O)C(=N)N (plate: M 23-24),inactive: 0.438
10,COc1ccc(C(=O)O)cc1OC (plate: M 21-22),inactive: 0.682
11,CC1(C)C2CC(=O)[C@]3(C)C(CC[C@@]4(C)[C@H](c5ccoc5)OC(=O)[C@H]5O[C@]543)[C@@]2(C)C(=O)C[C@H]1O (stereo partly drawn) (plate: M 13-14),inactive: -0.0073
12,NCC(=O)c1ccccc1 (plate: M 17-18),inactive: 0.166
13,O=c1c(O)c(-c2ccc(O)c(O)c2)oc2c(O)c(O)cc(O)c12 (plate: M 19-20),inactive: -0.573
14,CN1CCc2cc3c(cc2C1O)OCO3 (stereo not drawn) (plate: M 1-2),inactive: 0.217
15,CN[C@@H]1[C@@H](O)[C@@H](O[C@@H]2[C@@H](O)[C@H](O[C@H]3O[C@H]([C@@H](C)O)[C@@H](O)[C@H](O)[C@H]3N)[C@@H](N)C[C@H]2N)OC[C@]1(C)O (plate: M 19-20),inactive: 0.555
16,CC(C)C[C@H]1C(=O)N2CCC[C@H]2[C@]2(O)O[C@](NC(=O)[C@@H]3C=C4c5cccc6[nH]c(Br)c(c56)C[C@H]4N(C)C3)(C(C)C)C(=O)N12 (plate: M 1-2),inactive: -0.146
17,CN1[C@@H]2CC[C@H]1C[C@@H](OC(=O)C(CO)c1ccccc1)C2 (stereo partly drawn) (plate: M 1-2),inactive: 0.373
18,C[C@]12CCC(=O)C(O)=C1CC[C@@H]1[C@@H]2CC[C@]2(C)C(=O)CC[C@@H]12 (plate: M 23-24),inactive: 0.252

# Source: the supplement of paper PMC9578143, “Small-Molecule Ebselen Binds to YTHDF Proteins Interfering with the Recognition of N^6-Methyladenosine-Modified RNAs” (ACS Pharmacology & Translational Science, 2022)
